According to article PMC8165551:
These are yes or no findings as the source states them, for the method shown. In cells and extracts the contact can be indirect. Some binding calls cover weakened binding; strength is not graded here. Sequences can lack the tags named with a protein.

Sequences of proteins named here, by UniProt entry; tags and fusion partners are left off.
UniProt P22216: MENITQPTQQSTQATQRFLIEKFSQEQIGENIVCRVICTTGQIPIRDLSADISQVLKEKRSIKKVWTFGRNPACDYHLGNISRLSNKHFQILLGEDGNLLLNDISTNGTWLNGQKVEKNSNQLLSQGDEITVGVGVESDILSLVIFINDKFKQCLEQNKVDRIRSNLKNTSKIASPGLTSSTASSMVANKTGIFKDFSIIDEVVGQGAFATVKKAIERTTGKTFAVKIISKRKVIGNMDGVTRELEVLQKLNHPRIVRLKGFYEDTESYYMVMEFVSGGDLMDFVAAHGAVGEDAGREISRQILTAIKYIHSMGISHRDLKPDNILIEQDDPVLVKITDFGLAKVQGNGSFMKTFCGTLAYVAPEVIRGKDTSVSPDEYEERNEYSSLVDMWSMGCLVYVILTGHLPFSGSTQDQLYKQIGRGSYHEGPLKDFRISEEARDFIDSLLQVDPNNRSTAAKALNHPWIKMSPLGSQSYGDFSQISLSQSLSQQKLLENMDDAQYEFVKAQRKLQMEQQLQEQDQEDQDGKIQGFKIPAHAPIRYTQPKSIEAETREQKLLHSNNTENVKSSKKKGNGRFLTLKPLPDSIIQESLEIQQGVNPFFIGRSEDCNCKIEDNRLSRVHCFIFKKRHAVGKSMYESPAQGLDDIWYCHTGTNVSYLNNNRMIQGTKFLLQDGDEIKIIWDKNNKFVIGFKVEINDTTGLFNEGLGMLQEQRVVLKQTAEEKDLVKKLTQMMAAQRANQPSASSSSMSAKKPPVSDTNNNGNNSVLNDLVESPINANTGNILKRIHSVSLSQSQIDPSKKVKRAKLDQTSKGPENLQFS

How the values were obtained:
[1] = biological target: T1, Dma1, 3X-HA-tagged at the C terminus (S. cerevisiae) (UniProt P38823); test: co-IP; 3XHA-tagged Dma1 or Dma2 precipitated from 1 mg yeast lysate (lysis buffer with Universal nuclease and Benzonase) with the indicated antibody overnight at 4 °C in buffer A (50 mM Hepes-KOH pH 7.5, 125 mM potassium acetate, 1% NP-40), Protein A agarose, six washes, immunoblot; cells with phleomycin treatment or no treatment
T1 sequence: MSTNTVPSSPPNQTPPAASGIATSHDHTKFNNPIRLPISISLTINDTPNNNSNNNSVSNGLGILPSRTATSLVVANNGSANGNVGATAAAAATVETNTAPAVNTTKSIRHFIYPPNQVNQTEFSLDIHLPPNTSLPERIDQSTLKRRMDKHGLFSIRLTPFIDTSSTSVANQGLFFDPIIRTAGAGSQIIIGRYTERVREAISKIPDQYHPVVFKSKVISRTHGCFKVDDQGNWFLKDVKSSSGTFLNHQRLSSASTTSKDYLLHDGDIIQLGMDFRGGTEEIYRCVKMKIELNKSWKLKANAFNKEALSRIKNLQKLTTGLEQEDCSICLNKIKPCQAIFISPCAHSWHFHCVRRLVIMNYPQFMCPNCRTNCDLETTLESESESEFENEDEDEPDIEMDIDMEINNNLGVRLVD

[2] = biological target: T2, Dma2, 3X-HA-tagged at the C terminus (S. cerevisiae) (UniProt P53924); test: as above
T2 sequence: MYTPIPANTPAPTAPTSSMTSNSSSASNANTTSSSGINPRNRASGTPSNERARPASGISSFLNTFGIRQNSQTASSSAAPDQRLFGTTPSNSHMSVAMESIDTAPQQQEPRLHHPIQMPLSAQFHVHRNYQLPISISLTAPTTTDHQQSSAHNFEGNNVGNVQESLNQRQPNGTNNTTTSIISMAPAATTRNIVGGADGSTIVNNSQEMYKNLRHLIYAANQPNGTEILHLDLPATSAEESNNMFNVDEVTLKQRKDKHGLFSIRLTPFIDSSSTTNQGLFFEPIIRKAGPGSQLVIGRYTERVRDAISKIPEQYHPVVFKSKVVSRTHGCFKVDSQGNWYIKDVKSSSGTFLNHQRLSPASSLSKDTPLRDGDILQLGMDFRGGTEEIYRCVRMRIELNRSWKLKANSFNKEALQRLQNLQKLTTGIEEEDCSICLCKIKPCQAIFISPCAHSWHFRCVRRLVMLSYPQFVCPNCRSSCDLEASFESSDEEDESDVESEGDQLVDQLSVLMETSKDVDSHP

- binding [1]: binds
- binding [2]: binds
Substance: Rad53 (from UniProt P22216 1-821)
